Assay results reported in article PMC11025288.
Results are given in words; binding and its absence hold for the method and conditions named. In cells and extracts the contact can be indirect. Some binding calls cover weakened binding; strength is not graded here.

Sequences of proteins named here, by UniProt entry; tags and fusion partners are left off.
UniProt Q96LA8: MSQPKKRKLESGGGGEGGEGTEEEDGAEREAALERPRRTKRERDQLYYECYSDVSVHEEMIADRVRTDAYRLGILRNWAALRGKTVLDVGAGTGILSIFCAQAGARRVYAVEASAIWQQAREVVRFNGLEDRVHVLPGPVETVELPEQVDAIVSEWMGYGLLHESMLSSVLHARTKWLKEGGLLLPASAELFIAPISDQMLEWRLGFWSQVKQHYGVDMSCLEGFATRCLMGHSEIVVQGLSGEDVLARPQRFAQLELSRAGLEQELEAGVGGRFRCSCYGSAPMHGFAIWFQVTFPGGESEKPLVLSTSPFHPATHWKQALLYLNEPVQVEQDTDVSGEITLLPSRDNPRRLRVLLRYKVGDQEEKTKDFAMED
UniProt P50750: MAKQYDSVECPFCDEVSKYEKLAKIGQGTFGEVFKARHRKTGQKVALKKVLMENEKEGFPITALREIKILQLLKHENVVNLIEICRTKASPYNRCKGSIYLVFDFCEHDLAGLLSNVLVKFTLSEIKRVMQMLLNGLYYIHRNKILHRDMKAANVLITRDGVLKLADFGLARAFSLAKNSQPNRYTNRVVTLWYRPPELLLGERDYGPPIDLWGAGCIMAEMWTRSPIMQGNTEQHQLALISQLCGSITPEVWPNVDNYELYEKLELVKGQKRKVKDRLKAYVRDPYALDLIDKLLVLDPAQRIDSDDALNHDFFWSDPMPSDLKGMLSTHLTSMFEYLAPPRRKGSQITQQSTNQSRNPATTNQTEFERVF

Target: Protein arginine methyltransferase 6 (human (endogenous in LN229 and U251)) (UniProt Q96LA8)
Test: co-IP; lysates of LN229 and U251 cells in IP lysis buffer, pre-cleared, primary antibody overnight at 4 °C, Protein G Sepharose, three washes, Western blot

- binding: binds
Substance: CDK9 (from UniProt P50750 1-372) (enzyme)
